Earlier results as cited in US20100063041A1, “NOVEL PHENYLPROPIONIC ACID DERIVATIVES AS PEROXISOME PROLIFERATOR-ACTIVATED GAMMA RECEPTOR MODULATORS, METHOD OF THE SAME, AND PHARMACEUTICAL COMPOSITION COMPRISING THE SAME” (priority 2007, published 2010).
At least one compound was matched to its structure with a doubt left.

Assays:
[1] = tested on: C57BL/6J mice; settings: high-fat diet (HF), 13 weeks; cited from earlier work
[2] = 12-week clinical, co-administration with insulin, cited from earlier work
[3] = tested on: N-CoR, SMRT, p300, CBP, and Trap220; settings: compared to rosiglitazone; cited from earlier work

SMILES | Changes in cardiac weight [1] | decrease of glycosylated hemoglobin ([2]; compared to a non-treated control group) | reduction in the blood triglyceride level [2] | binding activity with cofactors [3]
O=C(O)c1c(Sc2ccccc2)c2cc(Cl)ccc2n1Cc1ccc(Cl)cc1 [nTZDpa] | +0.150.01 g | – | – | –
CC(=O)NCCOC(=O)[C@H](Oc1cccc(C(F)(F)F)c1)c1ccc(Cl)cc1 [metaglidasen] | – | 0.7% | 21% | weak or substantially no binding activity
